Results published in the supplement of paper PMC12067093, “Discovery and optimisation of a covalent ligand for TRIM25 and its application to targeted protein ubiquitination” (Chemical Science, 2025).
The list shows a part of the results.

Amino acid sequences for entries named in this document (tags omitted). A change or cut given only in a name is not applied to a line headed by its entry.
UniProt P52948: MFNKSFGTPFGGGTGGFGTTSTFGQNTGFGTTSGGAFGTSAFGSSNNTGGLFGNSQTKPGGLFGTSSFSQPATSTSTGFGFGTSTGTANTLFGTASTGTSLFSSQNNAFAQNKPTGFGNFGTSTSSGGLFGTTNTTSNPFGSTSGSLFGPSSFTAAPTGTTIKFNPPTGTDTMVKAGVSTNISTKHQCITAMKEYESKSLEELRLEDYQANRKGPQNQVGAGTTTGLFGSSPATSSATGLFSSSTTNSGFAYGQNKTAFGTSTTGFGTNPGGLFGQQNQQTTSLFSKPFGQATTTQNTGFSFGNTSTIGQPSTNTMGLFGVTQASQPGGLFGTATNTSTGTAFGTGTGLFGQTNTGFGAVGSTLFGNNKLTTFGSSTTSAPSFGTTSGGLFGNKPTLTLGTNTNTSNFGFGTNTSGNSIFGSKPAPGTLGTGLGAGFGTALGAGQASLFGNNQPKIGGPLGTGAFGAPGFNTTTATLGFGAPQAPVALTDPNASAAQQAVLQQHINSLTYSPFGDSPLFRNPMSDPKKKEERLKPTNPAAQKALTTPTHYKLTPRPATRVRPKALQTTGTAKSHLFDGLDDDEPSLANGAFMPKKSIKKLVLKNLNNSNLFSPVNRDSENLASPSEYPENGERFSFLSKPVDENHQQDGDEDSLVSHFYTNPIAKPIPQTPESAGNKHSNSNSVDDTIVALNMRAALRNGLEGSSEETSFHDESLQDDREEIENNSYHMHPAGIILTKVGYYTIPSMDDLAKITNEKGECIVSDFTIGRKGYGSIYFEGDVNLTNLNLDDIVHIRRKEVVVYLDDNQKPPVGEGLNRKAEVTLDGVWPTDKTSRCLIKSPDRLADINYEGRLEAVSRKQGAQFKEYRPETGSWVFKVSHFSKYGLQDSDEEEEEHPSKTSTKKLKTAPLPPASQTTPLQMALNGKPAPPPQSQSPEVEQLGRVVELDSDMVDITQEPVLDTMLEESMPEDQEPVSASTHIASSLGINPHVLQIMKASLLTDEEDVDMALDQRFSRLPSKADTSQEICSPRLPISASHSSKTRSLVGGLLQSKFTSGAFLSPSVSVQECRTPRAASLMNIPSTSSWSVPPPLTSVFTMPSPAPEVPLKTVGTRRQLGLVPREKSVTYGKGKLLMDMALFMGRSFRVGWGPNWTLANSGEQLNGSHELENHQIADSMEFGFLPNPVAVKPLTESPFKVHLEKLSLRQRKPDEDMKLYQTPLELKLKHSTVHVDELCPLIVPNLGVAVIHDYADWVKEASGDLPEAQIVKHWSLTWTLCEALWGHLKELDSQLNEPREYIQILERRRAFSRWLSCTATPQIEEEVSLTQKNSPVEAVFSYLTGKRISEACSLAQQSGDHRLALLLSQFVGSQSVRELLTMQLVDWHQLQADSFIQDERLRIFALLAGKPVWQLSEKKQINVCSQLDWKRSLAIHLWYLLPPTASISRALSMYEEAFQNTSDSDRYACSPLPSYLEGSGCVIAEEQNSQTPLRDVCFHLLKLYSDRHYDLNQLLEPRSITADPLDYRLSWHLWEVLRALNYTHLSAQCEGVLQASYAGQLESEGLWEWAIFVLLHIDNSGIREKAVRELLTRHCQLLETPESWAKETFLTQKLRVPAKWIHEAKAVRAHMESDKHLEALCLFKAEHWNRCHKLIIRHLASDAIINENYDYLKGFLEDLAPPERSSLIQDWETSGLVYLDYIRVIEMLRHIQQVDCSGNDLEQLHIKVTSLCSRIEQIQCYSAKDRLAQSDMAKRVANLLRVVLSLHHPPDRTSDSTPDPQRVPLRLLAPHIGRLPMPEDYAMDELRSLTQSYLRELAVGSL
UniProt Q9Y5Y2: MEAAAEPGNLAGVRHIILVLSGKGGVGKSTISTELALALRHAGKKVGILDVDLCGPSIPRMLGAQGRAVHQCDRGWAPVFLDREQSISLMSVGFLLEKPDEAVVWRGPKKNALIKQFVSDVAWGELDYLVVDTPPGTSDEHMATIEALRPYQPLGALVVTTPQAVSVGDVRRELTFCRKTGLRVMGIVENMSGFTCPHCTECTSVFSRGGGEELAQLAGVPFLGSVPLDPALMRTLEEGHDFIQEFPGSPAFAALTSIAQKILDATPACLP
UniProt Q14980: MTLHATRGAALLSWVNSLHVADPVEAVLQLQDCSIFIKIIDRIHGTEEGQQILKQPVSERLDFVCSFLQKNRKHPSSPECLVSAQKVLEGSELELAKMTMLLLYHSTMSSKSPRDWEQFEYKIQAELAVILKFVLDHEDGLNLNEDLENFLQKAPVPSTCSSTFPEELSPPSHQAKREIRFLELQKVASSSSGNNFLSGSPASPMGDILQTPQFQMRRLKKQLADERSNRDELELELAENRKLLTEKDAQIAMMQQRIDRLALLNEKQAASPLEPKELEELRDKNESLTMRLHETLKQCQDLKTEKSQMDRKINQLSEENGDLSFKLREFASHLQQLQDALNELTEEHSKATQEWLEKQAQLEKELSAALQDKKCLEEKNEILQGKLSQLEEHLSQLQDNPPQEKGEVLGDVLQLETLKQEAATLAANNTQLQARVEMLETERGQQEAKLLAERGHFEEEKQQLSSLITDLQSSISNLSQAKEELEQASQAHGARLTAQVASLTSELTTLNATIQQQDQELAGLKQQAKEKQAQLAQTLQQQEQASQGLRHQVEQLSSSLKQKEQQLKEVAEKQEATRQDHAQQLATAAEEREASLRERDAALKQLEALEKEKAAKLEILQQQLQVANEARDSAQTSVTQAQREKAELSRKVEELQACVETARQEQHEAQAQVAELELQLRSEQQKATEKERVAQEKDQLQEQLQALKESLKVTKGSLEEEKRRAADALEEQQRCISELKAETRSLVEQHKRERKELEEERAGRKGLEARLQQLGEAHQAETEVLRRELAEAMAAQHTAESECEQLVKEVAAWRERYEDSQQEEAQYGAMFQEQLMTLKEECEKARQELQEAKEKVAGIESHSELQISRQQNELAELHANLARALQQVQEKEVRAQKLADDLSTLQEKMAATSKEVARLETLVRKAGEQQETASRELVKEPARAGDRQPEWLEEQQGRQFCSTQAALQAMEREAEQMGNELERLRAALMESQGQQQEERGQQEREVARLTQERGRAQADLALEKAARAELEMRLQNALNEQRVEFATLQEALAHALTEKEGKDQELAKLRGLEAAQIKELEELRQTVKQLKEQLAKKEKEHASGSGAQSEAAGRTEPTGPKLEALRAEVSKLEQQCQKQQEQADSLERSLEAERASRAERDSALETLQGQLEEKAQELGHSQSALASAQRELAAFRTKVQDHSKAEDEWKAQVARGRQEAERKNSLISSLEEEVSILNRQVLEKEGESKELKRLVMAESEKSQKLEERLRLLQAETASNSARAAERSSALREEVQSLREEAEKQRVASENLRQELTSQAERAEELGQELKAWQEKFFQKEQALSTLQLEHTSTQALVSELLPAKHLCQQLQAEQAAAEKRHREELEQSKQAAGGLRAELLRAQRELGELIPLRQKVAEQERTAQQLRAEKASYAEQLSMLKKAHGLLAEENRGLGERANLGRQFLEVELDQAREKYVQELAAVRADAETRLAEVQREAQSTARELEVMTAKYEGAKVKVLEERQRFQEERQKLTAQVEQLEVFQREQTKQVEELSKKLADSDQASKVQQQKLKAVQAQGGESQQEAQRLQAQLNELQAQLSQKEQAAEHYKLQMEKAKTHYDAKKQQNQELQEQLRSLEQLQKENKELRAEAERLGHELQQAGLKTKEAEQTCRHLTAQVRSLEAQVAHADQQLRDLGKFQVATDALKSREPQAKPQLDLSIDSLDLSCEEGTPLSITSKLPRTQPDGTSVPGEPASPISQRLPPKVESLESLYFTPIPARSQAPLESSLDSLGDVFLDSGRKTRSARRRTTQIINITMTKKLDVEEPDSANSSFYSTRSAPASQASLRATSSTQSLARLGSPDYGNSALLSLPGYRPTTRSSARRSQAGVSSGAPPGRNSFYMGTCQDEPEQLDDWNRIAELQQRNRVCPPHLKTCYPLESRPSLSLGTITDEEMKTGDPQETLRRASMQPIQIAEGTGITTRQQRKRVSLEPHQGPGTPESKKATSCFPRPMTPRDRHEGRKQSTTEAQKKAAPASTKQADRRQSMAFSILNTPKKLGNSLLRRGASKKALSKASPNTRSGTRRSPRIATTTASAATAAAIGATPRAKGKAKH
UniProt P49790, whole entry, looked up: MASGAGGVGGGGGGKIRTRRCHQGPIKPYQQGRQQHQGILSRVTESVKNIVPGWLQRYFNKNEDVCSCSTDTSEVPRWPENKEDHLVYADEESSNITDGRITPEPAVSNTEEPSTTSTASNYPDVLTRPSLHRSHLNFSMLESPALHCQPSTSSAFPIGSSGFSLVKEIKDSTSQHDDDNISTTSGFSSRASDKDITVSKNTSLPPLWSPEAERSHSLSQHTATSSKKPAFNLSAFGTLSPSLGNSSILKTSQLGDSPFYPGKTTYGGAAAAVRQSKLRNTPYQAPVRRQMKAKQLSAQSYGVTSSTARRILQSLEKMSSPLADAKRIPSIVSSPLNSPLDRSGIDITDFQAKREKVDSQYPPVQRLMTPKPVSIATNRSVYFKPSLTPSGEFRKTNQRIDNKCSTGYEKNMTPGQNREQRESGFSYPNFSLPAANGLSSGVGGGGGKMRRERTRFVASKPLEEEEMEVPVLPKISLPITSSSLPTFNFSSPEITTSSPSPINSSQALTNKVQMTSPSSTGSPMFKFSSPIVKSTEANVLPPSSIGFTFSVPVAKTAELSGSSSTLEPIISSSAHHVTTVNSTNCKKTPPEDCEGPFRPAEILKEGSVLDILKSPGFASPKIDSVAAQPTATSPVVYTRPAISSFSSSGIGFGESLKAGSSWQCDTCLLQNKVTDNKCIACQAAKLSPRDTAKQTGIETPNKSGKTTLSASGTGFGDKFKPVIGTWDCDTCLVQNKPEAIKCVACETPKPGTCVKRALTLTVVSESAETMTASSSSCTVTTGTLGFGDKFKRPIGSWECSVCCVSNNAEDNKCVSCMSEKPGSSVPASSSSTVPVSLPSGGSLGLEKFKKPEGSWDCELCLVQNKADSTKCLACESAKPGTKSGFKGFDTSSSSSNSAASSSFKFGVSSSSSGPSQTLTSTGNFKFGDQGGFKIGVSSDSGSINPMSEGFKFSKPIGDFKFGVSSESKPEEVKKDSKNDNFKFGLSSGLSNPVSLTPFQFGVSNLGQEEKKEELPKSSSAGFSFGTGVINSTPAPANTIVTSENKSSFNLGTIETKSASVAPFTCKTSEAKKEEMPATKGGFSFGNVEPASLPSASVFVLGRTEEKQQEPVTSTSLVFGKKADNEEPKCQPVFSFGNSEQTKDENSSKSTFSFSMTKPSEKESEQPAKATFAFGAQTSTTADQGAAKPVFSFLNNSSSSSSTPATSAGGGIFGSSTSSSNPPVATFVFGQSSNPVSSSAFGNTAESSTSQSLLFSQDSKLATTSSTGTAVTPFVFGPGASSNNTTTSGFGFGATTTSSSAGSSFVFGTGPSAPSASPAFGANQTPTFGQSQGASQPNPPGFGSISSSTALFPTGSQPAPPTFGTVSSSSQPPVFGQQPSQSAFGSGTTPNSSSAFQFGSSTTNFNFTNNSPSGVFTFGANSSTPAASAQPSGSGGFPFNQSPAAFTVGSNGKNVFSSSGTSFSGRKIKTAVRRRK
UniProt Q5BJF6: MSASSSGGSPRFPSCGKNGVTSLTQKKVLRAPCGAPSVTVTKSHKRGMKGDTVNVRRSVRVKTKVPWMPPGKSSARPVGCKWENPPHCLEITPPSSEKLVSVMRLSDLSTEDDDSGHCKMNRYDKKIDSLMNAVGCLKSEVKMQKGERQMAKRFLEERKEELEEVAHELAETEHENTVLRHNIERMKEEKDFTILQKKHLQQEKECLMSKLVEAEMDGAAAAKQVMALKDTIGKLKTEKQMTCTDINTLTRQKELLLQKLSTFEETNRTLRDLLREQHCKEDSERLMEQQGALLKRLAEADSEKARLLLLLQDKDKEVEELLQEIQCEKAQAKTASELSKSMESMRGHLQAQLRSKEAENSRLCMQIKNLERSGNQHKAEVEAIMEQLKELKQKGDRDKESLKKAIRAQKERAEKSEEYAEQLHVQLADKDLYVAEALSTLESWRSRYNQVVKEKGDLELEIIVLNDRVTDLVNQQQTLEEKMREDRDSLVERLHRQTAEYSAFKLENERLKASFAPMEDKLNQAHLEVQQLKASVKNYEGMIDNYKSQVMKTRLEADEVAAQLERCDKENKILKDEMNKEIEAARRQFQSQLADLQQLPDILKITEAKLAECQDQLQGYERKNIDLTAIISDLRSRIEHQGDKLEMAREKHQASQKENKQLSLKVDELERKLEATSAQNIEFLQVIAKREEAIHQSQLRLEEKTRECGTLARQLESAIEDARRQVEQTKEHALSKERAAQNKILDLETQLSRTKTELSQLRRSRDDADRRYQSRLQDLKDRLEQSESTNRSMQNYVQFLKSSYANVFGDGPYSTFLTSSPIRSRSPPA

Compound: CC1Cc2ccccc2N1C(=O)C1CCCN(C1)C(=O)CCl (mixture of isomers) [TRIM25 ligand 11 (diastereomer mixture)]
Test: probe-labelled cysteine peptide fold change vs DMSO (competition) (log2 fold change); higher = less target engagement (more negative = stronger competition)
Details: THP-1, incubation time: 4 h
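Note: competitive chemoproteomic profiling in live THP-1 cells with an iodoacetamide desthiobiotin (IA-DTB) probe, comparing probe-labelled peptide intensities in compound-treated cells against DMSO-treated controls.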

Target	probe-labelled cysteine peptide fold change (10 µM)	probe-labelled cysteine peptide fold change (50 µM)
NTHL1_P78549_290_ELWHEINGLLVGFGQQTCLPVHPR (UniProt P78549)	0.179	0.162
NUDT14_O95848_127_EAWEECGYHLAPSDLR (UniProt O95848)	0.0677	-0.039
NUP98_P52948_760_GECIVSDFTIGR (UniProt P52948)	-0.00269	0.00601
NUP54_Q7Z3B4_171_GYFNNNIPPVEFTQENPFCR (UniProt Q7Z3B4)	-0.0322	-0.122
NUBP2_Q9Y5Y2_196_VMGIVENMSGFTCPHCTECTSVFSR (UniProt Q9Y5Y2)	-0.103	0.0461
NUP88_Q99567_447+454_CFVEHILCTK (UniProt Q99567)	0.103	0.0339
NUMA1_Q14980-4_1729_PQLDLSIDSLDLSCEEGTPLSITR (UniProt Q14980)	-0.0732	0.0128
NUDT19_A8MXV4_220_RFDTAFFLCCLR (UniProt A8MXV4)	0.137	0.168
NUMA1_Q14980_803_ELAEAMAAQHTAESECEQLVK (UniProt Q14980)	0.093	0.0727
NVL_O15381_803_EASICALR (UniProt O15381)	0.0326	0.175
NUP205_Q92621_1275_LLQCLHAK (UniProt Q92621)	0.0677	0.0658
NUBP2_Q9Y5Y2_269_ILDATPACLP (UniProt Q9Y5Y2)	0.0519	-0.094
NUP153_P49790_1065_SASVAPFTCK (UniProt P49790)	-0.0674	-0.0235
NUP188_Q5SRE5_1270_DSMETDDCSR (UniProt Q5SRE5)	-0.000917	-0.14
NUP155_O75694_433_GILLMAASENEDNDILWCVNHDTFPFQK (UniProt O75694)	0.296	0.122
NUDT5_Q9UKK9_76_TLHYECIVLVK (UniProt Q9UKK9)	0.0411	0.00719
NUP160_Q12769_292+303_GDQSPSDRPLSLAVHCVEHDAFIFALCQDHK (UniProt Q12769)	0.115	0.203
NUDT9_Q9BW91_347_DAHWSEDSEADCHAL (UniProt Q9BW91)	-0.0365	-0.273
ODF2_Q5BJF6_136_KIDSLMNAVGCLK (UniProt Q5BJF6)	0.0615	-0.0363

2 entries drawn at random from the list so far:
Target	probe-labelled cysteine peptide fold change (10 µM)	probe-labelled cysteine peptide fold change (50 µM)
NUP153_P49790_1065_SASVAPFTCK (UniProt P49790)	-0.0674	-0.0235
NUMA1_Q14980-4_1729_PQLDLSIDSLDLSCEEGTPLSITR (UniProt Q14980)	-0.0732	0.0128

Additional results.

Target	probe-labelled cysteine peptide fold change (10 µM)	probe-labelled cysteine peptide fold change (50 µM)
NUBP2_Q9Y5Y2_72_AVHQCDR (UniProt Q9Y5Y2)	-0.0198	0.214
NUBP1_P53384_235_VKLPIIGVVENMSGFICPK (UniProt P53384)	-0.377	-0.0216
ODF2_Q5BJF6_708_TRECGTLAR (UniProt Q5BJF6)	0.0159	0.317
OGFR_Q9NZT2_87_HNYPDLVERDCNGDTPNLSFYR (UniProt Q9NZT2)	-0.212	-0.337
NUDT12_Q9BQG2_177_LCQLNYTDIK (UniProt Q9BQG2)	0.246	0.189
NVL_O15381_431_FDREICLGIPDEASR (UniProt O15381)	-0.0502	0.0728
NUP160_Q12769_558_FYACCLQYQEALSHPLALHLNPHTNMVCLLK (UniProt Q12769)	0.0527	0.144
NUDCD1_Q96RS6_376_DSAQCAAIAER (UniProt Q96RS6)	-0.11	-0.0353
NUMA1_Q14980_1930_VCPPHLK (UniProt Q14980)	-0.177	-0.199
NUP62_P37198_475_DIIEHLNTSGAPADTSDPLQQICK (UniProt P37198)	-0.0721	-0.0994
NUP210_Q8TEM1_746_FVCAPPSR (UniProt Q8TEM1)	0.0568	0.329
NVL_O15381_626_ALGLVTPAGVLLAGPPGCGK (UniProt O15381)	0.11	0.092
NUDT9_Q9BW91_347_RDAHWSEDSEADCHAL (UniProt Q9BW91)	0.138	-0.0487
NUMA1_Q14980_961_QFCSTQAALQAMER (UniProt Q14980)	-0.0793	-0.218
OGFOD3_Q6PK18_90_FIEVPCSEDYDSHR (UniProt Q6PK18)	-0.0633	-0.115
NT5DC1_Q5TFE4_63_ELLNVTPEDWDFCCK (UniProt Q5TFE4)	0.0602	0.194
NUBP2_Q9Y5Y2_54_KVGILDVDLCGPSIPR (UniProt Q9Y5Y2)	-0.0291	-0.0444
NUP133_Q8WUM0_702_EVSQVDTICECLLEHEEQVLR (UniProt Q8WUM0)	0.104	0.265
NUP98_P52948_1312_WLSCTATPQIEEEVSLTQK (UniProt P52948)	-0.074	-0.163
